Laboratory results from the supplement of paper PMC10849652.
This is one part of the list.

The chains behind the UniProt entries cited, without tags or fusion partners. Where a name states a change or a piece, a line headed by the entry shows the natural chain unless it says otherwise.
UniProt Q9Y3A3: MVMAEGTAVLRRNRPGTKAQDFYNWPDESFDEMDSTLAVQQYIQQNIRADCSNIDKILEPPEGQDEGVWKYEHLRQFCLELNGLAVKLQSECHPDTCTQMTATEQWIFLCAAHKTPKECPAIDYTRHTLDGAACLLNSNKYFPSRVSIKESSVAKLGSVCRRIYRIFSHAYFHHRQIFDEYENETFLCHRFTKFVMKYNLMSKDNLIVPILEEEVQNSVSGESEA
UniProt Q99797: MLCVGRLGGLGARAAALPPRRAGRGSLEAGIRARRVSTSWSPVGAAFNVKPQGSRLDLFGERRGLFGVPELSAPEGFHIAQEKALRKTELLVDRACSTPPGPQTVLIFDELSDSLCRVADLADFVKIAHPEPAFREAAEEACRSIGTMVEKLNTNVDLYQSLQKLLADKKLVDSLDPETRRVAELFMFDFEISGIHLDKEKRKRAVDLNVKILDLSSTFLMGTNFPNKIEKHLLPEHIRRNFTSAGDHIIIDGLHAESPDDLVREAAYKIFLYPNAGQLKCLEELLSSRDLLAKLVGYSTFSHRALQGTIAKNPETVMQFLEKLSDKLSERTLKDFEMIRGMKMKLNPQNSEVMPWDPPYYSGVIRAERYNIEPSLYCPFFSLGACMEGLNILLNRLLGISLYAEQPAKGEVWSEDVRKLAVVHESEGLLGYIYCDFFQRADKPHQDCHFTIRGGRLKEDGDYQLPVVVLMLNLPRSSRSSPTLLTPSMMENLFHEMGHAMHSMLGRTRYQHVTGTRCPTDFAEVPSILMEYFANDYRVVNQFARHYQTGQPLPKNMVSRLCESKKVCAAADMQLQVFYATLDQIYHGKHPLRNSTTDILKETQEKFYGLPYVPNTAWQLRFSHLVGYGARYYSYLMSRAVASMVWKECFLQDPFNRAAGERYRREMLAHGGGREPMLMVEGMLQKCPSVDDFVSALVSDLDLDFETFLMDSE
UniProt Q9BU76: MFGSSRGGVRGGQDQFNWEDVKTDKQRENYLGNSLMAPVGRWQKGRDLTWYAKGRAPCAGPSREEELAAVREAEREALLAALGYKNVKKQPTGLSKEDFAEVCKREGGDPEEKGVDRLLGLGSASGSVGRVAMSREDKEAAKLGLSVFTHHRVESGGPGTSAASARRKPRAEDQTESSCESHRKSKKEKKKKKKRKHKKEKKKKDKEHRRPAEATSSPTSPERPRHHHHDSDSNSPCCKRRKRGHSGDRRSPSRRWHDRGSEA
UniProt P22033: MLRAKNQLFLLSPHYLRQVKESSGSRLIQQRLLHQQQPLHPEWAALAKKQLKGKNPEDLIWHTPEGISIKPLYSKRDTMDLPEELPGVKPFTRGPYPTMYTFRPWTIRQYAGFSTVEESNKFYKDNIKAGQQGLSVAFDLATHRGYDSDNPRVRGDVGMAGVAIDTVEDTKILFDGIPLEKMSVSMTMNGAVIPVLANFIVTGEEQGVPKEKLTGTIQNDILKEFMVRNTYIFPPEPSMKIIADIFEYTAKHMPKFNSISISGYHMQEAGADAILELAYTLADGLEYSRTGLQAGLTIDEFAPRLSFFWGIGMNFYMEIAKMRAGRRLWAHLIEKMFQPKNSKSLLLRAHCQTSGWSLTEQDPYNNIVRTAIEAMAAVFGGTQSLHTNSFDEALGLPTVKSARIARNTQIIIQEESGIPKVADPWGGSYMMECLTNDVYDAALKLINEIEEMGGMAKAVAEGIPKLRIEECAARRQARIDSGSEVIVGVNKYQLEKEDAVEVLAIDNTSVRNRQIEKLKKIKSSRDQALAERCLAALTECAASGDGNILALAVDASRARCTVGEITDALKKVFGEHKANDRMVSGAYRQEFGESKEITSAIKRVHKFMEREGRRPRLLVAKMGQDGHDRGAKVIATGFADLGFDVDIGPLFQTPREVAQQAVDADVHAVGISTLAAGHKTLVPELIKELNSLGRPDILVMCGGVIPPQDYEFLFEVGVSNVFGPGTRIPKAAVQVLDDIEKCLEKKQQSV
UniProt Q7L9L4: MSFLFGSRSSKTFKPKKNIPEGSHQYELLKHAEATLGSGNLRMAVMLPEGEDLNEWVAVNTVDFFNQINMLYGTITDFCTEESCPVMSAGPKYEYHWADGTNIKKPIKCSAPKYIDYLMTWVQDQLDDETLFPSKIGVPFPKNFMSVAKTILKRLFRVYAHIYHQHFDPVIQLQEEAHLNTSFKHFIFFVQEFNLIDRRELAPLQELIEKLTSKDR
UniProt Q03111: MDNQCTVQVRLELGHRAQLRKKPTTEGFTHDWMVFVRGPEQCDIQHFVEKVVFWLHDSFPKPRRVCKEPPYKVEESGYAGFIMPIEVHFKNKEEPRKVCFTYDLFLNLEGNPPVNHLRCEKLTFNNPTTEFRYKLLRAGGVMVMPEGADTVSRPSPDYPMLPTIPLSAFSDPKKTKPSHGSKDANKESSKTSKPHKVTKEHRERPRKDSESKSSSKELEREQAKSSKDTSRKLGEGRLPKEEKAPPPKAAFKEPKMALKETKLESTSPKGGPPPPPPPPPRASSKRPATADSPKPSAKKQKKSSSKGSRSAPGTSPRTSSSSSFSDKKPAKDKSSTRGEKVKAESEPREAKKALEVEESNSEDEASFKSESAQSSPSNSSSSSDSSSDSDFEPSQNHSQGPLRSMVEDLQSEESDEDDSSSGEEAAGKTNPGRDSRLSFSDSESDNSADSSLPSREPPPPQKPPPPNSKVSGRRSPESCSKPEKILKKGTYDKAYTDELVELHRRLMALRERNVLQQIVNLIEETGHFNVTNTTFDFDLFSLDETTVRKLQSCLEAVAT
UniProt Q8TAP9: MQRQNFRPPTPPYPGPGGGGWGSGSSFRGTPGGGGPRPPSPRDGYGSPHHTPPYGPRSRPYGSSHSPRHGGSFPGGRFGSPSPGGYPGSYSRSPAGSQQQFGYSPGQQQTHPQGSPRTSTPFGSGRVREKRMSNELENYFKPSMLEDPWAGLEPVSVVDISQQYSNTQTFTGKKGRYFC
UniProt Q96EY8: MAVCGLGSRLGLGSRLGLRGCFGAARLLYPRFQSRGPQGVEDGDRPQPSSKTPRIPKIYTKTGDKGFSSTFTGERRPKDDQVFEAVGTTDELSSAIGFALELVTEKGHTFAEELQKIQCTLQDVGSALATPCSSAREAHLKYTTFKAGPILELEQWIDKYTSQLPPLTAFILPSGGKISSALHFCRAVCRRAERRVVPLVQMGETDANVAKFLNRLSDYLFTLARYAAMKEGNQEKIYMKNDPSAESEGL
UniProt Q9UNW1: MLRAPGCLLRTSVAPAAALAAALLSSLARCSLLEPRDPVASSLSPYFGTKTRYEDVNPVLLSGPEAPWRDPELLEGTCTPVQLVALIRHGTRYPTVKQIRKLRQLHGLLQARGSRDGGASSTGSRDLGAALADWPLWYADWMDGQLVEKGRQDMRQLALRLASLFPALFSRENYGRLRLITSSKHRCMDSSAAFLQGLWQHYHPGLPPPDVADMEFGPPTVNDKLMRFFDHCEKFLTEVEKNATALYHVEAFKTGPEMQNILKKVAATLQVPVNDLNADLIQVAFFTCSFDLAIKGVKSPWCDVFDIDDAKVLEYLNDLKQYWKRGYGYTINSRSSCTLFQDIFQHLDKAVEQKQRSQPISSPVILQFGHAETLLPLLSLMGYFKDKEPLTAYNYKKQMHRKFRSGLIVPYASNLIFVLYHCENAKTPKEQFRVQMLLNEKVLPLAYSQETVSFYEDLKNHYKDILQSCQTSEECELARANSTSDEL
UniProt Q8NHP6: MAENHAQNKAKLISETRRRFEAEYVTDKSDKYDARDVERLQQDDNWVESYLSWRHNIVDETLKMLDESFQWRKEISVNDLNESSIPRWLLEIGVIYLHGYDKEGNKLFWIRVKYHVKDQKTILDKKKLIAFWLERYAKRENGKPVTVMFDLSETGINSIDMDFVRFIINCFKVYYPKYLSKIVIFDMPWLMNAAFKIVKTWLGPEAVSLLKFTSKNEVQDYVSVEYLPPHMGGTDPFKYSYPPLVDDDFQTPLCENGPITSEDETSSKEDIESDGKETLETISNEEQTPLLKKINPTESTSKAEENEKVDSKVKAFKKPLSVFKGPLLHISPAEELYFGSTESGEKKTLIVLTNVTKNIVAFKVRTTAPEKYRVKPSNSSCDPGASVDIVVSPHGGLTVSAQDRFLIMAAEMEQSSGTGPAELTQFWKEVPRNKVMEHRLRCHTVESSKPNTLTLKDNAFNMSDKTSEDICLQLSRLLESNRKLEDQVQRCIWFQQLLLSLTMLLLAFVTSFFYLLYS
UniProt Q9BV20: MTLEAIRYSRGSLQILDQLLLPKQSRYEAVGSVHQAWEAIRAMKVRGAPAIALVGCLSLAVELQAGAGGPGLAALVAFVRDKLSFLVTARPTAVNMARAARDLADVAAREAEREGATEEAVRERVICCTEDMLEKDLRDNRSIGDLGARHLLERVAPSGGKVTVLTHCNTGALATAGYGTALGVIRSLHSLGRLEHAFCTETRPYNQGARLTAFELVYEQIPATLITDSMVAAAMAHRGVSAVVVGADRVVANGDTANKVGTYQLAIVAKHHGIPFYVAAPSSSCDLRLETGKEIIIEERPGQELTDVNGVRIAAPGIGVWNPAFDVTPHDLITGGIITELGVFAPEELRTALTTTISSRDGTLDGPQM
UniProt Q5TGZ0: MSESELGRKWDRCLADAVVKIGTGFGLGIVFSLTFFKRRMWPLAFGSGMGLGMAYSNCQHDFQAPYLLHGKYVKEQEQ
UniProt A9UHW6: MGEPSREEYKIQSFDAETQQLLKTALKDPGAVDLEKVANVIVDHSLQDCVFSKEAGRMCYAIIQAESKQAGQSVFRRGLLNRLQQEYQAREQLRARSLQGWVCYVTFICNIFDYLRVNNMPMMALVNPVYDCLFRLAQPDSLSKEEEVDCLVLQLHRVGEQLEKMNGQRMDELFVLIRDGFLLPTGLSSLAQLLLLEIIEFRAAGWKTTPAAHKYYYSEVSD
UniProt O75352: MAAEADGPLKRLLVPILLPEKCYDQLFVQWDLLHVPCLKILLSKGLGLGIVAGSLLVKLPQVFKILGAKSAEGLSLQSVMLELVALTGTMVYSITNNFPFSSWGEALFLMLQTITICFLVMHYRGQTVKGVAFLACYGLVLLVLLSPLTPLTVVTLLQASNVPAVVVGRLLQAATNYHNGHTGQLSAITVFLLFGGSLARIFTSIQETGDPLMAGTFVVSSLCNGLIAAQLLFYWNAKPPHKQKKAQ
UniProt O96007: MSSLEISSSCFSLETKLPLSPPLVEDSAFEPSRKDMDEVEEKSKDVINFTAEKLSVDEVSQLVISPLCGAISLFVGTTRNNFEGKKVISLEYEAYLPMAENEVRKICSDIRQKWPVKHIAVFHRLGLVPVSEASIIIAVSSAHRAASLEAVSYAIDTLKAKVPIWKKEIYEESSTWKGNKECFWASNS
UniProt Q9NZW5: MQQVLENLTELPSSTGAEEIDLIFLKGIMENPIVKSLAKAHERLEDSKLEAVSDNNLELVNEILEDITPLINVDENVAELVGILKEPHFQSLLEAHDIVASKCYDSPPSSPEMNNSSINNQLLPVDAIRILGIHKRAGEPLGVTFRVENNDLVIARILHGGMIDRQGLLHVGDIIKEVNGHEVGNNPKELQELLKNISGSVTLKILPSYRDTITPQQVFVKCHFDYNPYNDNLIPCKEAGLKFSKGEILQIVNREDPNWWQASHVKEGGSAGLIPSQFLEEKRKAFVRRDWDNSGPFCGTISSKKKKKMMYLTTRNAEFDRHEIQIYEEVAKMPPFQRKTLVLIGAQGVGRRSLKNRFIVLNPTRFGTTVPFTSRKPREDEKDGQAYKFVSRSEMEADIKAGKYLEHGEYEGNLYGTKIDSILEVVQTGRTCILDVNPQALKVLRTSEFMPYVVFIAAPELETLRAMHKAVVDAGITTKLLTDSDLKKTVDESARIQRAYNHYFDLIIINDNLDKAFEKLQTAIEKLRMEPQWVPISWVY
UniProt O95822: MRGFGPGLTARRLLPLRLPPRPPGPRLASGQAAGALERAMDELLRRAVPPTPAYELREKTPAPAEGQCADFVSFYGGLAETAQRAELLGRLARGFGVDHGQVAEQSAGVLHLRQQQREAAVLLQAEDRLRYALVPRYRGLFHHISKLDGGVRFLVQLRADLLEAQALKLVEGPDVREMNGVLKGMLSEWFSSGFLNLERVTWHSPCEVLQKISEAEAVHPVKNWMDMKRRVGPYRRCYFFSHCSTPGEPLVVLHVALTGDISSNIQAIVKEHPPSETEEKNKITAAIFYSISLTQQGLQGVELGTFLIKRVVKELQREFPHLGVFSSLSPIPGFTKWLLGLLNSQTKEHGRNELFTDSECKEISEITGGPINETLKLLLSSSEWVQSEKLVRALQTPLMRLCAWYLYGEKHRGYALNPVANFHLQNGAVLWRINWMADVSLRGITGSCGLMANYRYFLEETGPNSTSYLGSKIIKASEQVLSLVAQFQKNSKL

These targets were tested with c1cn2cc(-c3ccc4cn[nH]c4c3)nc(Nc3ccc(N4CCOCC4)cc3)c2n1 [entospletinib] (assay: log2 fold change, soluble protein after heating vs DMSO (PISA); higher = thermal stabilisation; K562 cells, 10 uM, 30 min; active = over 0.2 and 3.5 SD of the protein, either way, in both replicates (recomputed)).
In short: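 Aliquots of K562 cells (2×10^6 cells/mL) treated with 10 μM compound for 30 min were heated for 3 min over 48°C-58°C. After pooling and extraction in PBS with 0.5% NP-40 at 4°C, soluble protein from a 21,000xg, 90 min spin was quantified by TMTpro 16plex LC-MS/MS with channel sums equalised. Thermal stability is expressed against control samples, from duplicates, as a log2 fold change.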

log2 fold change, inactive:
MOB4 (UniProt Q9Y3A3) -0.049
MIPEP (UniProt Q99797) -0.078
MMTAG2 (UniProt Q9BU76) -0.054
MMUT (UniProt P22033) -0.01
MRPL38 (UniProt Q96DV4) 0.092
MOB1B isoform 2 (UniProt Q7L9L4) 0.015
MRPL11 (UniProt Q9Y3B7) 0.068
MKI67 (UniProt P46013) 0.006
MLLT1 (UniProt Q03111) 0.056
MRPL24 (UniProt Q96A35) 0.014
MPLKIP (UniProt Q8TAP9) -0.028
MMAB (UniProt Q96EY8) 0.042
MRPL18 (UniProt Q9H0U6) 0.08
MRPL43 isoform 4 (UniProt Q8N983) 0.049
MINPP1 (UniProt Q9UNW1) -0.022
MOSPD2 (UniProt Q8NHP6) -0.007
MRPL3 (UniProt P09001) 0.092
MRPL32 (UniProt Q9BYC8) 0.09
MRI1 (UniProt Q9BV20) 0.039
MICOS10 (UniProt Q5TGZ0) 0.01
MIF4GD isoform 3 (UniProt A9UHW6) -0.011
MRPL27 (UniProt Q9P0M9) 0.067
MRPL15 (UniProt Q9P015) 0.117
MPDU1 (UniProt O75352) -0.022
MRPL42 (UniProt Q9Y6G3) -0.066
MICB, A0A140T979 -0.01
MRPL13 (UniProt Q9BYD1) 0.107
MRPL16 (UniProt Q9NX20) 0.051
MRPL40 (UniProt Q9NQ50) 0.047
MOCS2 (UniProt O96007) 0.03
MPP6 (UniProt Q9NZW5) 0.018
MLYCD (UniProt O95822) -0.027

Fetched one by one from the entries so far, 2 records:
log2 fold change, inactive:
MMAB (UniProt Q96EY8) 0.042
MOSPD2 (UniProt Q8NHP6) -0.007
